The chains behind the UniProt entries cited, without tags or fusion partners. Residues count along the entry.
UniProt Q13255, 19-1194 limits assumed: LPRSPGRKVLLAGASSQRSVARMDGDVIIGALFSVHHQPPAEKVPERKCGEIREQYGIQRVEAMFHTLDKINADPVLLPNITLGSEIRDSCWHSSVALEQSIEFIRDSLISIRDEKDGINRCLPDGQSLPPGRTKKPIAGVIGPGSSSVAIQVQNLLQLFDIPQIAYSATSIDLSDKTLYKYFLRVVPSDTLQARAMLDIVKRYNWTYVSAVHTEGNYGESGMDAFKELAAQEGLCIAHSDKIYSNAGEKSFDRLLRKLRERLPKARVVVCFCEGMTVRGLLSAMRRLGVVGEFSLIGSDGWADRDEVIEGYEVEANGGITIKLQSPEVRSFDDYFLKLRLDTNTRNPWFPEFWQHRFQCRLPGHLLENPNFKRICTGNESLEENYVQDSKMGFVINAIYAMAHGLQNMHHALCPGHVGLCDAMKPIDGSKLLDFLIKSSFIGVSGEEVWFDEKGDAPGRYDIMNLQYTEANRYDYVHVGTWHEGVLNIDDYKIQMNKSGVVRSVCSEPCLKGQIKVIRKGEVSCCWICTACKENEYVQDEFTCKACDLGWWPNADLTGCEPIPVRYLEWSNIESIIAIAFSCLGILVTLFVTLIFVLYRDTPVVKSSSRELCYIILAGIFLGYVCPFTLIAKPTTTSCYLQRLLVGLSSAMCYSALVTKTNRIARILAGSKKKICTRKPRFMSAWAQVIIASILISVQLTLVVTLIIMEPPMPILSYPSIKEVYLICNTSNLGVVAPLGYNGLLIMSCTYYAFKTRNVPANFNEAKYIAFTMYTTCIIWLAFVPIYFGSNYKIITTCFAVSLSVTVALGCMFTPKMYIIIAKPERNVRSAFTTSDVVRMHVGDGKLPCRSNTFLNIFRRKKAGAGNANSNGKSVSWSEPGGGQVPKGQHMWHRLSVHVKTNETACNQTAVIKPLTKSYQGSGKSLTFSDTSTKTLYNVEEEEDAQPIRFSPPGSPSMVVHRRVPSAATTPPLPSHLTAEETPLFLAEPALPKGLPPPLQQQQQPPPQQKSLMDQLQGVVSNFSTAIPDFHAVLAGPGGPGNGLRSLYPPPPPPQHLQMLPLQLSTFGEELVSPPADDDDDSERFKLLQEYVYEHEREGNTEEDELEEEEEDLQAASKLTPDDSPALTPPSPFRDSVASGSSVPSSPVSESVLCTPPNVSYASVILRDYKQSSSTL

According to US7989464B2, “mGluR1 antagonists as therapeutic agents” (Schering Corporation, priority 2004, dated 2011):

Biological target: hmGluR1 receptor (Homo sapiens, UniProt Q13255)
Experiment: IC50 determination: intracellular calcium mobilization (FLIPR) upon Quisqualate stimulation in CHO cells stably expressing hmGluR1
Assay type: cell-based
Settings: read-out: mGIuR 1 IC50, against Quisqualate 1 μM (EC80), class symbols

Structure (SMILES) | IC50
CC(C)c1ccnc2sc3c(=O)n(C4CCCCC4)cnc3c12 | < 50 nM
Cc1ccnc2sc3c(=O)n(C4CCCCC4)cnc3c12 | > 1000 nM
O=c1c2sc3nccc(-n4cccc4)c3c2ncn1C1CCCCC1 | 50 to 150 nM

Structures were worked out from names or drawings and are uncertain.
